# Experimental data: the supplement of paper PMC6411743
# ± gives the standard deviation of the averaged measurements. The list shows a part of the results.
# Key:
# Assay in all cases: NP40-soluble protein abundance relative to vehicle (solubility fold change) (ratio); higher = more soluble protein in presence of GTP
# DNAJB2 = target: T1, DNAJB2 (UniProt P25686)
# T1 sequence (whole entry): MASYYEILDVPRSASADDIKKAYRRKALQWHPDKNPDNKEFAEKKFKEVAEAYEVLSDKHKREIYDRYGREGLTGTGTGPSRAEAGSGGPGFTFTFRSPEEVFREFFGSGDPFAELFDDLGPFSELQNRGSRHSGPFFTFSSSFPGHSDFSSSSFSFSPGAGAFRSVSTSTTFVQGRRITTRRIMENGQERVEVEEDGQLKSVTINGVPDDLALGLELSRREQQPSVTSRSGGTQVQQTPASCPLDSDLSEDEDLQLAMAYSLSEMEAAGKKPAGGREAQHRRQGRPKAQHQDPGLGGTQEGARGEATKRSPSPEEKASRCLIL
# Outline: (§1)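 Crude Jurkat lysate, prepared by Dounce homogenisation, was exposed to eight concentrations from 0.1 to 10 mM for 10 min at room temperature and then 3 min at 37 °C. Solubilisation used 0.8% NP40 with benzonase for 60 min at 4 °C, followed by ultracentrifugation and TMT labelling of the supernatant for LC-MS/MS. After vsn normalisation of intensities, each value is the fold change against the detergent-processed vehicle within each replicate, across three independent experiments.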
# GSTM3 = target: T2, GSTM3 (UniProt P21266)
# T2 sequence (whole entry): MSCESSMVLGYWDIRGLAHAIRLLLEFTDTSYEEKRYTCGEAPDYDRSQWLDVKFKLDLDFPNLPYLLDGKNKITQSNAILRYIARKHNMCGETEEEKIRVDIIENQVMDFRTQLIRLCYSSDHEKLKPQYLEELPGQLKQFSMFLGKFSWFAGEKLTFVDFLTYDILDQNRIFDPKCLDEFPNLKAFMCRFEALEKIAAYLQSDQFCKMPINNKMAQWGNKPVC
# Outline: as §1
# JUND = target: T3, JUND (UniProt P17535)
# T3 sequence (whole entry): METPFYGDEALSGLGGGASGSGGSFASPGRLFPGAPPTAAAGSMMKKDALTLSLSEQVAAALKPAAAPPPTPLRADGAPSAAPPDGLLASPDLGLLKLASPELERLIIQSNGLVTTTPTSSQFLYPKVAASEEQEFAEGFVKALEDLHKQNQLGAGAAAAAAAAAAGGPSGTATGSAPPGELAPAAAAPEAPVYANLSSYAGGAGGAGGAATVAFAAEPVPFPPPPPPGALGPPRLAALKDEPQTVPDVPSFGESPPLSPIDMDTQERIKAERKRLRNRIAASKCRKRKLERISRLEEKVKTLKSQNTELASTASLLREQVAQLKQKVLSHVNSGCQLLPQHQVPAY
# Outline: as §1
# LTA4H = target: T4, LTA4H (UniProt P09960)
# T4 sequence (whole entry): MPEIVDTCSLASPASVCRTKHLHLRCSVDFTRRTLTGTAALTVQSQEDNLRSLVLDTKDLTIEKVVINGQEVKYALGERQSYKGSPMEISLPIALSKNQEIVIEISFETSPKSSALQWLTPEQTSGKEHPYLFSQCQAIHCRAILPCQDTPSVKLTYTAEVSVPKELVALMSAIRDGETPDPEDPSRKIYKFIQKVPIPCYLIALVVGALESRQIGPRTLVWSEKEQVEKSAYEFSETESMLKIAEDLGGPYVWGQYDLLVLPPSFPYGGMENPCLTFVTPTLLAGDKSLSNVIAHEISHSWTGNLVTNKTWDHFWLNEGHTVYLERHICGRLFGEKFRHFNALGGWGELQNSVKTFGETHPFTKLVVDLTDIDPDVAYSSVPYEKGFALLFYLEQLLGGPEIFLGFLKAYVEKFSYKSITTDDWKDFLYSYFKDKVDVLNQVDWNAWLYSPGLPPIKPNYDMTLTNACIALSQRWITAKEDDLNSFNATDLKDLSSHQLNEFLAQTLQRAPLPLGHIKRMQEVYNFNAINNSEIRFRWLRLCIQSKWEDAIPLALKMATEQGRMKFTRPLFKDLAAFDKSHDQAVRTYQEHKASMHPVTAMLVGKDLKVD
# Outline: as §1
compound,measurement,setting,value
Nc1nc2c(ncn2[C@@H]2O[C@H](COP(=O)(O)OP(=O)(O)OP(=O)(O)O)[C@@H](O)[C@H]2O)c(=O)[nH]1 [guanosine triphosphate],NP40-soluble protein abundance,DNAJB2; concentration: 0.1mM,1.09 ± 0.14
same,NP40-soluble protein abundance,DNAJB2; concentration: 0.5mM,1.02 ± 0.032
same,NP40-soluble protein abundance,DNAJB2; concentration: 1mM,1.06 ± 0.13
same,NP40-soluble protein abundance,DNAJB2; concentration: 2mM,1.022 ± 0.01
same,NP40-soluble protein abundance,DNAJB2; concentration: 4mM,1.03 ± 0.04
same,NP40-soluble protein abundance,DNAJB2; concentration: 6mM,1.02 ± 0.052
same,NP40-soluble protein abundance,DNAJB2; concentration: 8mM,1.03 ± 0.088
same,NP40-soluble protein abundance,DNAJB2; concentration: 10mM,1.03 ± 0.082
same,NP40-soluble protein abundance,GSTM3; concentration: 0.1mM,1.03 ± 0.048
same,NP40-soluble protein abundance,GSTM3; concentration: 0.5mM,1.05 ± 0.043
same,NP40-soluble protein abundance,GSTM3; concentration: 1mM,0.941 ± 0.033
same,NP40-soluble protein abundance,GSTM3; concentration: 2mM,0.937 ± 0.047
same,NP40-soluble protein abundance,GSTM3; concentration: 4mM,0.906 ± 0.046
same,NP40-soluble protein abundance,GSTM3; concentration: 6mM,0.904 ± 0.046
same,NP40-soluble protein abundance,GSTM3; concentration: 8mM,0.845 ± 0.051
same,NP40-soluble protein abundance,GSTM3; concentration: 10mM,0.861 ± 0.12
same,NP40-soluble protein abundance,JUND; concentration: 0.1mM,0.993 ± 0.12
same,NP40-soluble protein abundance,JUND; concentration: 0.5mM,0.936 ± 0.076
same,NP40-soluble protein abundance,JUND; concentration: 1mM,1.12 ± 0.12
same,NP40-soluble protein abundance,JUND; concentration: 2mM,1.01 ± 0.027
same,NP40-soluble protein abundance,JUND; concentration: 4mM,0.998 ± 0.088
same,NP40-soluble protein abundance,JUND; concentration: 6mM,1.07 ± 0.085
same,NP40-soluble protein abundance,JUND; concentration: 8mM,1.08 ± 0.065
same,NP40-soluble protein abundance,JUND; concentration: 10mM,1.1 ± 0.092
same,NP40-soluble protein abundance,LTA4H; concentration: 0.1mM,1 ± 0.039
same,NP40-soluble protein abundance,LTA4H; concentration: 0.5mM,1.02 ± 0.064
same,NP40-soluble protein abundance,LTA4H; concentration: 1mM,0.907 ± 0.025
same,NP40-soluble protein abundance,LTA4H; concentration: 2mM,0.893 ± 0.071
same,NP40-soluble protein abundance,LTA4H; concentration: 4mM,0.872 ± 0.06
same,NP40-soluble protein abundance,LTA4H; concentration: 6mM,0.883 ± 0.038
same,NP40-soluble protein abundance,LTA4H; concentration: 8mM,0.848 ± 0.033
same,NP40-soluble protein abundance,LTA4H; concentration: 10mM,0.81 ± 0.068

# A run of entries from further up, for reference:
compound,measurement,setting,value
Nc1nc2c(ncn2[C@@H]2O[C@H](COP(=O)(O)OP(=O)(O)OP(=O)(O)O)[C@@H](O)[C@H]2O)c(=O)[nH]1 [guanosine triphosphate],NP40-soluble protein abundance,JUND; concentration: 10mM,1.1 ± 0.092
same,NP40-soluble protein abundance,LTA4H; concentration: 0.1mM,1 ± 0.039
